Measured values reported in article PMC12391048.
These are yes or no findings as the source states them, for the method shown. In cells and extracts the contact can be indirect. Some results given as binding are weak or reduced against the parent protein; the word gives no strength. For some of these results: Tags and fused reporters may be left off the sequences shown. One block for each molecule: values may come before it.

By UniProt entry, the sequences of proteins in these tests, tags left out.
UniProt O60260: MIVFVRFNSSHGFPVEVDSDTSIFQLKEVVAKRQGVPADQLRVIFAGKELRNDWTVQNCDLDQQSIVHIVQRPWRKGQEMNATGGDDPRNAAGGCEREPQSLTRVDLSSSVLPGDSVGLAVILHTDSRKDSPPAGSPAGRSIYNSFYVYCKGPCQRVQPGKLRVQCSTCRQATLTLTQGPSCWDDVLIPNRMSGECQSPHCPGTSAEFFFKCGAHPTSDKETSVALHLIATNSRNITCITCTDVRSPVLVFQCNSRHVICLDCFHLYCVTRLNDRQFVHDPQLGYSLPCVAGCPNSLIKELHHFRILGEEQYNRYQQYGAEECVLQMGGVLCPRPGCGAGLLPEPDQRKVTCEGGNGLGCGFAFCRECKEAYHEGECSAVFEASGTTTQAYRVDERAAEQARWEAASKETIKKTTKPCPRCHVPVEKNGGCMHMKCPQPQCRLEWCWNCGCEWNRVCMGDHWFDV

What was measured:
[1] = molecular target: T1, SFXN2 (endogenous) (human (endogenous in HEK293)) (UniProt Q96NB2); assay: co-IP; endogenous proteins in HEK293 lysates; IP with anti-SFXN2 or anti-Parkin antibody (unspecific IgG as control) plus protein A/G-agarose, 4°C overnight, five washes with IP lysis buffer; immunoblot with anti-SFXN2 and anti-Parkin
T1 sequence: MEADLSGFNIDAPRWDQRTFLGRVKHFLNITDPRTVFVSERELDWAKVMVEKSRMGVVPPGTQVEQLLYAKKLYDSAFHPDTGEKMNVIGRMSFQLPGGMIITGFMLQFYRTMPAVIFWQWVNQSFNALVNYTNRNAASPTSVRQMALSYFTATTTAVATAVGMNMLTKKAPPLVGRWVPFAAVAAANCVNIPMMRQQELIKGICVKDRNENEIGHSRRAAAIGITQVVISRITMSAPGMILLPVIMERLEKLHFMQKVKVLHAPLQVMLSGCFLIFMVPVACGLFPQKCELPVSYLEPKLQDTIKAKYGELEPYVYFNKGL

[2] = molecular target: T2, SFXN2-Myc (UniProt Q96NB2); assay: co-IP; transiently transfected HEK293 cells; lysates immunoprecipitated with anti-Myc antibody, 4°C overnight, five washes with IP lysis buffer; immunoblot with anti-Myc and anti-HA
T2 sequence: T1 sequence

[3] = molecular target: Parkin (endogenous) (human (endogenous in HEK293)) (UniProt O60260); assay: co-IP; endogenous proteins in HEK293 lysates; IP with anti-SFXN2 or anti-Parkin antibody (unspecific IgG as control) plus protein A/G-agarose, 4°C overnight, five washes with IP lysis buffer; immunoblot with anti-SFXN2 and anti-Parkin
[4] = molecular target: Parkin-Myc (UniProt O60260); assay: co-IP; transiently transfected HEK293 cells; lysates immunoprecipitated with anti-Myc antibody, 4°C overnight, five washes with IP lysis buffer; immunoblot with anti-Myc and anti-HA

- binding [2]: binds
Molecule: Parkin-HA (from UniProt O60260 1-465)

- binding [3]: binds
B1: SFXN2 (endogenous) (protein, UniProt Q96NB2 1-322)
chain: T1 sequence

More lines, now with the values behind:

Molecule: Parkin (endogenous) (from UniProt O60260 1-465)
- binding [1]: binds

B2: SFXN2-HA (protein, UniProt Q96NB2 1-322)
chain: T1 sequence
- binding [4]: binds
